# Laboratory results taken from PubChem BioAssay AID182 (DTP/NCI, 2004).
# The list is a part of this screen's results and no random one: it is rich in T/C values a quarter to a half above the control, in often repeated tests (any T/C) and in doses without a T/C. Further doses and runs are listed elsewhere. T/C is the treated group as % of the vehicle group. Some doses have a count of surviving animals in place of a T/C: the source files T/C as zero there, which appears to mark a toxic dose or a test without result, not a measured value. Some doses without a T/C left all or most animals alive at the check, yet need not have been tolerated: survival well below the control is almost never listed, so the zero probably covers shortened survival too. Counts of survivors are from the toxicity check (mostly the fifth day) where no day follows; animals may have died later. Schedules are NCI's codes, taken here to give the interval after Q, in days (D) or hours (H), and the number of doses after X. Where survival is the endpoint, this PubChem deposit counts one and a half times the control or more as active, and values a quarter to a half above the control carry no call in these data; other NCI protocols may use other cut-offs. Some T/C values carry the count of animals alive at the toxicity check (mostly the fifth day); where none is given, no animal had died by that day. Some entries were tested several times; the results are listed from low to high. Additions like (4×) stand for listed records that agree.
# Tested on: BDF1 mice, P388/ADR leukemia ip, median survival T/C
# Test: NCI In Vivo Anticancer Drug Screen. Data for tumor model P388 Leukemia resistant to Adriamycin; NSC 123127, Developed at Scr 06 and 41 (intraperitoneal) in B6D2F1 (BDF1) mice
# Details: T/C endpoint: median survival time, higher T/C = longer survival
# Description: The antitumor activity of compounds was measured in mice bearing transplantable tumors. Survival or tumor size were measured and the results are expressed as the measurement made in the treated group (T) divided by the measurement made in the vehicle treated control group (C). The tumor model used in this assay is P388 Leukemia resistant to Adriamycin; NSC 123127, Developed at Scr 06 and 41 (intraperitoneal) in B6D2F1 (BDF1) mice
# [1] = dose: 4.0 mg/kg/injection, schedule: Q04DX003 (ip), vehicle: water
# [2] = dose: 8.0 mg/kg/injection, schedule: Q04DX003 (ip), vehicle: saline
smiles,measurement,setting,value
COc1cccc2c1C(=O)c1c(O)c3c(c(O)c1C2=O)C[C@@](O)(C(=O)CO)C[C@@H]3OC1CC([N+](C)(C)C)C(O)C(C)O1 (some centres undefined),survivor count,"dose: 24.0 mg/kg/injection, schedule: Q04DX003 (ip), vehicle: water",6 of 8
same,survivor count,"dose: 40.0 mg/kg/injection, schedule: Q04DX003 (ip), vehicle: water",1 of 8
N[C@H](C(=O)O)[C@@H]1CC(Cl)=NO1,T/C,"dose: 21.6 mg/kg/injection, schedule: Q04DX003 (ip), vehicle: saline",130 % of control
same,T/C,"dose: 60.0 mg/kg/injection, schedule: Q04DX003 (ip), vehicle: saline",147 % of control
same,T/C,"dose: 100.0 mg/kg/injection, schedule: Q04DX003 (ip), vehicle: saline",147 % of control
COc1cccc2c1C(=O)c1c(O)c3c(c(O)c1C2=O)C[C@@](O)(C(=O)CO)C[C@@H]3OC1CC(N)C(O)C(C)O1 (some centres undefined),T/C,"dose: 1.3 mg/kg/injection, schedule: Q01DX004 (ip), vehicle: saline with Tween-80",127 % of control
same,T/C,"dose: 1.44 mg/kg/injection, schedule: Q04DX003 (ip), vehicle: water","102 (4×), 107, 111, 125 % of control"
same,T/C,"dose: 1.73 mg/kg/injection, schedule: Q04DX003 (ip), vehicle: saline","98, 108, 115, 116 (2×), 120 (2×), 121 % of control"
same,T/C,"dose: 2.16 mg/kg/injection, schedule: Q01DX004 (ip), vehicle: saline with Tween-80",130 % of control
same,T/C,"dose: 2.4 mg/kg/injection, schedule: Q04DX003 (ip), vehicle: water","100, 104, 106 (2×), 107, 115 % of control"
same,T/C,"dose: 2.88 mg/kg/injection, schedule: Q04DX003 (ip), vehicle: saline","107, 108 (2×), 113, 122, 123, 125, 132 % of control (2×)"
same,T/C,"dose: 3.4 mg/kg/injection, schedule: Q04DX003 (ip), vehicle: water",134 % of control
same,survivor count,"dose: 3.6 mg/kg/injection, schedule: Q01DX004 (ip), vehicle: saline with Tween-80",8 of 8
same,T/C,[1],"91, 100, 103, 111, 116, 120, 125 % of control"
same,T/C,"dose: 4.8 mg/kg/injection, schedule: Q04DX003 (ip), vehicle: saline","98, 103, 105, 107, 110, 115, 120, 120 [7 of 8 alive], 142 % of control"
same,survivor count,"dose: 6.0 mg/kg/injection, schedule: Q01DX004 (ip), vehicle: saline with Tween-80",8 of 8
same,T/C,"dose: 6.0 mg/kg/injection, schedule: Q04DX003 (ip), vehicle: saline",126 % of control
same,T/C,"dose: 6.67 mg/kg/injection, schedule: Q04DX003 (ip), vehicle: water","88, 91, 95, 97, 109, 112 % of control"
same,T/C,[2],86 and 109 % of control
same,survivor count,[2],8 of 8
same,survivor count,"dose: 8.0 mg/kg/injection, schedule: Q04DX003 (ip), vehicle: water",8 of 8
same,survivor count,"dose: 13.33 mg/kg/injection, schedule: Q04DX003 (ip), vehicle: saline",8 of 8
CC(=O)c1cccc(NC2C(N)C(NC(=O)N(C)C)(C(C)O)C(C)(O)C2(O)COC(=O)c2c(C)cccc2O)c1 (centres undefined),survivor count,"dose: 10.8 mg/kg/injection, schedule: Q04DX003 (ip), vehicle: alkali diluted with saline",4 of 8
same,survivor count,"dose: 18.0 mg/kg/injection, schedule: Q04DX003 (ip), vehicle: alkali diluted with saline",0 of 8
same,survivor count,"dose: 24.0 mg/kg/injection, schedule: Q04DX003 (ip), vehicle: alkali diluted with saline",6 of 8
same,survivor count,"dose: 30.0 mg/kg/injection, schedule: Q04DX003 (ip), vehicle: alkali diluted with saline",0 of 8
COc1cc([C@@H]2c3cc4c(cc3[C@@H](OC3OC5COC(C)OC5C(O)C3O)[C@H]3COC(=O)[C@H]23)OCO4)cc(OC)c1O (some centres undefined),survivor count,"dose: 83.3 mg/kg/injection, schedule: Q04DX003 (ip), vehicle: Klucel (hydroxypropylcellulose) (HPC)",8 of 8
O=P1(N(CCCl)CCCl)NCCCO1 (centres undefined),survivor count,"dose: 300.0 mg/kg/injection, schedule: Q01DX001 (ip), vehicle: saline",8 of 8
same,survivor count,"dose: 500.0 mg/kg/injection, schedule: Q01DX001 (ip), vehicle: saline",0 of 8
COc1cc2c[n+](C)c3c4cc5c(cc4ccc3c2cc1OC)OCO5,T/C,"dose: 133.3 mg/kg/injection, schedule: Q04DX003 (ip), vehicle: Klucel (hydroxypropylcellulose) (HPC)",125 % of control
same,survivor count,"dose: 167.0 mg/kg/injection, schedule: Q04DX003 (ip), vehicle: other",8 of 8
same,survivor count,"dose: 320.0 mg/kg/injection, schedule: Q04DX003 (ip), vehicle: other",7 of 8
Cc1c(N)nc([C@H](CC(N)=O)NC[C@H](N)C(N)=O)nc1C(=O)N[C@H](C(=O)N[C@H](C)[C@@H](O)[C@H](C)C(=O)N[C@H](C(=O)NCCc1nc(-c2nc(C(=O)NCCC[S+](C)C)cs2)cs1)[C@@H](C)O)C(OC1OC(CO)C(O)C(O)C1OC1OC(CO)C(O)C(OC(N)=O)C1O)c1cnc[nH]1 (some centres undefined),survivor count,"dose: 61.7 mg/kg/injection, schedule: Q04DX003 (ip), vehicle: saline",8 of 8
CC[C@H]1CN2CCc3cc(OC)c(OC)cc3[C@@H]2C[C@@H]1C[C@@H]1c2cc(OC)c(OC)cc2CCN1CCN(CCCl)CCCl,T/C,"dose: 12.0 mg/kg/injection, schedule: Q04DX003 (ip), vehicle: saline with Tween-80",129 % of control
same,T/C,"dose: 20.0 mg/kg/injection, schedule: Q04DX003 (ip), vehicle: saline with Tween-80",139 % of control
CO[C@H]1Nc2c(ccc(C)c2O)C(=O)N2C=C(/C=C/C(N)=O)C[C@@H]12,T/C,"dose: 151.0 micrograms/kg/injection, schedule: Q04DX003 (ip), vehicle: saline + alcohol",141 % of control
same,survivor count,"dose: 700.0 micrograms/kg/injection, schedule: Q04DX003 (ip), vehicle: saline + alcohol",8 of 8
same,survivor count,"dose: 1000.0 micrograms/kg/injection, schedule: Q04DX003 (ip), vehicle: saline + alcohol",3 of 8
CCC1(O)CC(OC2CC(N(C)C)C(OC3CC4OC5CC(=O)C(C)OC5OC4C(C)O3)C(C)O2)c2c(cc3c(c2O)C(=O)c2c(O)ccc(O)c2C3=O)C1C(=O)OC (centres undefined),T/C,"dose: 2.16 mg/kg/injection, schedule: Q04DX003 (ip), vehicle: water",140 % of control
same,survivor count,"dose: 3.6 mg/kg/injection, schedule: Q04DX003 (ip), vehicle: water",8 of 8
same,survivor count,[1],5 of 8
same,survivor count,"dose: 6.0 mg/kg/injection, schedule: Q04DX003 (ip), vehicle: water",4 of 8
CC1OC(O[C@H]2/C=C/C=C/C=C/C=C/C=C/C=C/C=C/[C@H](C)[C@@H](O)[C@@H](C)[C@H](C)OC(=O)C[C@H](O)C[C@H](O)CC[C@@H](O)[C@H](O)C[C@H](O)C[C@]3(O)C[C@H](O)[C@@H](C(=O)O)[C@H](C2)O3)C(O)C(N)C1O (some centres undefined),survivor count,"dose: 40.0 mg/kg/injection, schedule: Q04DX003 (ip), vehicle: clinical formulation",8 of 8
same,survivor count,"dose: 80.0 mg/kg/injection, schedule: Q04DX003 (ip), vehicle: clinical formulation",2 of 8
COc1ccc(CC2C(=O)NC(C)C(=O)N(C)C3C(=O)N(C)C(Cc4ccc(O)c(c4)Oc4ccc(cc4)C3O)C(=O)NC(C)C(=O)NC(C)C(=O)N2C)cc1 (centres undefined),survivor count,"dose: 4.32 mg/kg/injection, schedule: Q04DX003 (ip), vehicle: other",7 of 8
same,survivor count,"dose: 7.2 mg/kg/injection, schedule: Q04DX003 (ip), vehicle: other",2 of 8
same,survivor count,"dose: 12.0 mg/kg/injection, schedule: Q04DX003 (ip), vehicle: other",0 of 8
same,survivor count,"dose: 20.0 mg/kg/injection, schedule: Q04DX003 (ip), vehicle: other",0 of 8
CC[C@]1(O)C[C@H](OC2CC(N(C)C)C(OC3CC(O)C(O)C(C)O3)C(C)O2)c2c(cc3c(c2O)C(=O)c2c(O)ccc(O)c2C3=O)[C@H]1C(=O)OC (some centres undefined),survivor count,"dose: 16.0 mg/kg/injection, schedule: Q04DX003 (ip), vehicle: other",8 of 8
